In US20240327411A1, “SIRT6 ACTIVATORS” (The Board of Regents of The University of Texas System, priority 2022, published 2024):
For some of these results: For at least one compound, name, drawing or mass did not settle the structure. Some results were stated once for a whole list of compounds, not compound by compound. Some ranges recur; such a range may be that of the whole group of compounds.

The chains behind the UniProt entries cited, without tags or fusion partners.
UniProt Q8N6T7, whole entry: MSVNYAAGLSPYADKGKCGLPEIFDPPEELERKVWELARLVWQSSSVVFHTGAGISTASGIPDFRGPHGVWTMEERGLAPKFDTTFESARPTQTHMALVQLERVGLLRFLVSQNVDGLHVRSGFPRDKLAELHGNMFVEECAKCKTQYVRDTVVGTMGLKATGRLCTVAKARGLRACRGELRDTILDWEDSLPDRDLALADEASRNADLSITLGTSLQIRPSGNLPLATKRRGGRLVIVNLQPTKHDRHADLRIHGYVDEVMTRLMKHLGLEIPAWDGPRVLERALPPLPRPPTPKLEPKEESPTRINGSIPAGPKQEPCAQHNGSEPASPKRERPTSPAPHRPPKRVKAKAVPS

Columns and labels:
Sirt6 = Sirt6 (Homo sapiens, UniProt Q8N6T7); experiment: Sirt6-dependent peptide deacetylation, FLUOR DE LYS / Sirt6 fluorometric activity kit; assay type: biochemical; conditions: compound at 100 μM, mean ± SD, at least two independent experiments
osteoarthritis (OA) = conditions: surgical destabilization of the medial meniscus mouse models; literature; cited from earlier work

SMILES: c1ccc2c(c1)NC(c1cccnc1N1CCN(CCN3CCC3)CC1)c1cccn1-2 (stereo not shown) [Compound 45, 4-(2-(4-(2-(Azetidin-1-yl)ethyl)piperazin-1-yl)pyridin-3-yl)-4,5-dihydropyrrolo[1,2-a]quinoxaline]
- Activation Fold 100 μM (Sirt6; listed as compound 45): 5.38-6.30 fold

SMILES: OC1CN(CCN2CCN(c3ncccc3C3Nc4ccccc4-n4cccc43)CC2)C1 (stereo not shown) [Compound 46, 1-(2-(4-(3-(4,5-Dihydropyrrolo[1,2-a]quinoxalin-4-yl)pyridin-2-yl)piperazin-1-yl)ethyl)azetidin-3-ol]
- Activation Fold 100 μM (Sirt6; listed as compound 46): 5.38-6.30 fold

SMILES: c1ccc2c(c1)NC(c1cccnc1N1CCN(CCN3CCCC3)CC1)c1cccn1-2 (stereo not shown) [Compound 47, 4-(2-(4-(2-(Pyrrolidin-1-yl)ethyl)piperazin-1-yl)pyridin-3-yl)-4,5-dihydropyrrolo[1,2-a]quinoxaline]
- Activation Fold 100 μM (Sirt6; listed as compound 47): 5.38-6.30 fold

SMILES: O=C1CCCN1CCN1CCN(c2ncccc2C2Nc3ccccc3-n3cccc32)CC1 (stereo not shown) [Compound 48, 1-(2-(4-(3-(4,5-Dihydropyrrolo[1,2-a]quinoxalin-4-yl)pyridin-2-yl)piperazin-1-yl)ethyl)pyrrolidin-2-one]
- Activation Fold 100 μM (Sirt6; listed as compound 48): 5.38-6.30 fold

SMILES: c1ccc2c(c1)NC(c1cccnc1N1CCN(CCN3CCOCC3)CC1)c1cccn1-2 (stereo not shown) [Compound 49, 4-(2-(4-(3-(4,5-Dihydropyrrolo[1,2-a]quinoxalin-4-yl)pyridin-2-yl)piperazin-1-yl)ethyl)morpholine]
- Activation Fold 100 μM (Sirt6; listed as compound 49): 5.38-6.30 fold

SMILES: c1ccc2c(c1)NC(c1cccnc1N1CCN(CCn3ccnc3)CC1)c1cccn1-2 (stereo not shown) [Compound 50, 4-(2-(4-(2-(1H-Imidazol-1-yl)ethyl)piperazin-1-yl)pyridin-3-yl)-4,5-dihydropyrrolo[1,2-a]quinoxaline]
- Activation Fold 100 μM (Sirt6; listed as compound 50): 5.38-6.30 fold

SMILES: Oc1cc(O)c2cc(O)c(-c3ccc(O)c(O)c3)[o+]c2c1 [cyanidin]
- course of OA (osteoarthritis (OA)): ameliorate the aggressive course of OA
